The target in this assay is T1, AtCIPK23 (Arabidopsis (from the prefix At)) (UniProt Q93VD3).
T1 sequence: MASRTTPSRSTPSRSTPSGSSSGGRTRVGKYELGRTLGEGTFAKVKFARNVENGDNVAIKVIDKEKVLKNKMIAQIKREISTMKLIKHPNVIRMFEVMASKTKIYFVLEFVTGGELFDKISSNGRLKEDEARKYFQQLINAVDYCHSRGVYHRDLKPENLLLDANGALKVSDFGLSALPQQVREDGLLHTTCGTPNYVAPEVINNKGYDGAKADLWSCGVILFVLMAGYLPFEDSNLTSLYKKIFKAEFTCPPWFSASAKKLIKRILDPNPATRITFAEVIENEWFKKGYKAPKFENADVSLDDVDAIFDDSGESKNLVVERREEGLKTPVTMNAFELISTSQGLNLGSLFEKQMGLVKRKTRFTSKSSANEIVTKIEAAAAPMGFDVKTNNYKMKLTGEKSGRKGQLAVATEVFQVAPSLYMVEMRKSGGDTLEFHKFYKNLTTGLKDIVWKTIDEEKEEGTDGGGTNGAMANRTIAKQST
Description: split reporter; luciferase complementation: cLUC and nLUC fusions expressed in Nicotiana benthamiana leaves by Agrobacterium GV3101, 3 days; luminescence by CCD camera and dual luciferase reporter kit (LUC/REN). For orientation: Reporter assays use an easily measured gene product as a stand-in for the process of interest.

The chains behind the UniProt entries cited, without tags or fusion partners.
UniProt O81445: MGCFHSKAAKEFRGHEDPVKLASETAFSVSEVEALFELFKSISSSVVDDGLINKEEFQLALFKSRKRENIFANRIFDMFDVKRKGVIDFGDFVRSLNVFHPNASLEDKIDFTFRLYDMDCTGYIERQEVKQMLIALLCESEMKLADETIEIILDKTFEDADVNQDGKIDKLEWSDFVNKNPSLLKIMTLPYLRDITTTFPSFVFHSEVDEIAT

These are yes or no findings as the source states them, for the method shown. In cells and extracts the contact can be indirect. Some entries that bind do so weakly or less than the wild type.

In the case of AtCBL1 (from UniProt O81445 1-213), the binding result is recorded as “binds”.

(Values after article PMC10753161.)
